Measurements reported in PubChem BioAssay AID485318 (Broad Institute, 2010).
Screen size: about 1,400 compounds; fewer than 10 were called active.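 The calls were made as follows: active = fluorescence-lowering compounds whose fitted half-maximal concentration is at or below ten times the highest valid dose tested; inconclusive = flat curve at 30 to 70% inhibition, or poor fit; inactive = the rest.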 This is one part of the list.

Sequences of proteins named here, by UniProt entry; tags and fusion partners are left off. A change or cut given only in a name is not applied to a line headed by its entry.
UniProt O15379: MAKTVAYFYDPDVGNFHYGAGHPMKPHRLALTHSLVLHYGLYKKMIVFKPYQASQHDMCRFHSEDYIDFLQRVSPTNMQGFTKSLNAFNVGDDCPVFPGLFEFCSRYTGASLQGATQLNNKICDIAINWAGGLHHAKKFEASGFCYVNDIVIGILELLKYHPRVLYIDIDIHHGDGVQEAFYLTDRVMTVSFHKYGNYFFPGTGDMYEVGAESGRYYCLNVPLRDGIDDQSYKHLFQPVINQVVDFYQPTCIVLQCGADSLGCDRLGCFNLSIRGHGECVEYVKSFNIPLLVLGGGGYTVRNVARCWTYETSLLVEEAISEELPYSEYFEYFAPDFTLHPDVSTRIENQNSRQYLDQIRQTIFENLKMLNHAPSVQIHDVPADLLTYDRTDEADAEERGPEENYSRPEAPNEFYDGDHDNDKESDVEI

Each compound was assayed against Histone deacetylase 3 (Homo sapiens) (UniProt O15379) (assay: inhibition of human HDAC3 enzymatic activity – biochemical, fluorescence, cherry-picked samples, counter-screen for JMJD2C/GASC1 demethylase inhibitor project, dose response (AID 485318;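 also: enzyme preincubated with compound before substrate and trypsin were added; 0% = neutral control wells and -100% = SAHA positive control wells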)). Details: recombinant HDAC3, fluorogenic peptide/trypsin coupled; at 12 µM (top of the series).
For `O=C(NCc1nnc(SCC(=O)N2CCCC2)o1)c1ccccc1F`, the activity change, negative = inhibition was inactive: 0.414%.
With `Cc1cc(NC(=O)Nc2c[nH]c(=O)[nH]c2=O)ccc1Br` the activity change, negative = inhibition was inactive: -0.238%.
In the case of `CCn1c(O)c(N=NC2=NC(=O)CS2)c2ccccc21`, the activity change, negative = inhibition is reported as inactive: -0.261%.
In the case of `CCN(CC)C(=O)[C@H]1CC(CC(=O)NCc2cccc(C(F)(F)F)c2)C(=O)N2CCc3c([nH]c4ccccc34)[C@]12C` (stereo not given in full), the activity change, negative = inhibition is reported as inactive: 0.0358%.
In the case of `COc1ccccc1CNC(=O)COc1ccc(S(=O)(=O)N2CCOCC2)cc1C`, the activity change, negative = inhibition is reported as inactive: -0.41%.
With `Nc1c(Cl)ncnc1NCc1cccnc1` the activity change, negative = inhibition was inactive: 0.296%.
With `Cc1ccc(/C(N)=N/OC(=O)CCC2CCCCC2)cc1` the activity change, negative = inhibition was inactive: 0.336%.
In the case of `N=C1C(c2nc3ccccc3s2)=C(O)CN1Cc1ccccc1`, the activity change, negative = inhibition is reported as inactive: 0.082%.
With `CC(C)NC(=O)N(C)C[C@H]1Oc2ccc(NC(=O)C3CC3)cc2C(=O)N([C@H](C)CO)C[C@@H]1C` the activity change, negative = inhibition was inactive: 0.135%.
With `COc1ccc(S(=O)(=O)Nc2ccc3c(c2)CC(=O)N([C@@H](C)CO)C[C@H](C)[C@@H](CN(C)S(=O)(=O)c2ccc(F)cc2)O3)cc1` the activity change, negative = inhibition was inactive: -0.0258%.
For `CCNC(=O)c1ccc2c(c1)S(=O)(=O)c1ccccc1C2=O`, the activity change, negative = inhibition was inactive: 0.35%.
In the case of `O=C(CSc1nnnn1-c1ccc(Cl)cc1)N1CCc2ccccc2C1`, the activity change, negative = inhibition is reported as inactive: -0.296%.
In the case of `CCN1CCC(=NNC(=O)c2ccc(C)c([N+](=O)[O-])c2)CC1`, the activity change, negative = inhibition is reported as inactive: -0.151%.
In the case of `CCOc1cc(CN2CCN(CCc3ccccc3)C(CCO)C2)ccc1OC` (stereo not given), the activity change, negative = inhibition is reported as inactive: -0.41%.
For `Cc1ccc(C2CC(c3ccccc3)=NN2C(=S)Nc2ccccc2)o1` (stereo not given), the activity change, negative = inhibition was inactive: 0.186%.
For `N#CC(=C1CCCC1)c1nc(-c2ccccc2)cs1`, the activity change, negative = inhibition was inactive: -0.44%.
`CCOC(=O)N1CCC(c2nc3ccccc3[nH]2)CC1` was tested, and the activity change, negative = inhibition was inactive: 0.964%.
For `CC(C)CCn1c(NCCN(C)C)nc2c1c(=O)[nH]c(=O)n2C`, the activity change, negative = inhibition was inactive: -0.59%.
For `O=c1oc(C2(O)CCCCC2)cc2ccccc12`, the activity change, negative = inhibition was inactive: -0.0707%.
`CCOc1ccc(-c2c(C#N)c(N)nc3c2c(=O)n(C)c(=O)n3C)cc1OC` was tested, and the activity change, negative = inhibition was inactive: 0.544%.
In the case of `CCN1C(=O)C(C(=O)Nc2ccc(OC)cc2)C2CC1(C)Oc1ccccc12` (stereo not given), the activity change, negative = inhibition is reported as inactive: 0.383%.
`Cc1cc(OC(=O)c2c(C)cc(OC(=O)c3c(C)cc(O)cc3O)cc2O)cc(O)c1C(=O)O` was tested, and the activity change, negative = inhibition was inactive: 0.12%.
`COc1ccc(-c2nnc(SC(C)C(=O)NCc3ccc4c(c3)OCO4)n2Cc2ccco2)cc1` (stereo not given) was tested, and the activity change, negative = inhibition was inactive: -0.548%.
`CCc1ccc(-c2nnn(Cc3nn[nH]n3)n2)cc1` was tested, and the activity change, negative = inhibition was inactive: 0.626%.
`CC(C)CNC(=O)c1ccc(NC(=O)c2cccs2)cc1` was tested, and the activity change, negative = inhibition was inactive: -0.0738%.
For `Cc1[nH]c2ccccc2c1-c1ccc(Cl)nn1`, the activity change, negative = inhibition was inactive: -1.36%.
With `Clc1ccccc1Cn1nnc2c(NCCN3CCOCC3)ncnc21` the activity change, negative = inhibition was inactive: 0.515%.
With `CS(=O)(=O)N(CC(=O)O)c1cc(Cl)cc(Cl)c1` the activity change, negative = inhibition was inactive: -0.416%.
In the case of `O=S(=O)(c1ccc2nc(Nc3ccccc3)ccc2c1)N1CCCCC1`, the activity change, negative = inhibition is reported as inactive: -0.0951%.
With `CCCCOc1ccc(C(=O)Nc2ccc(N3CCN(C(C)=O)CC3)cc2)cc1` the activity change, negative = inhibition was inactive: 0.78%.
For `O=c1cc(N/N=C/c2ccccc2)[nH]c(=O)[nH]1`, the activity change, negative = inhibition was inactive: -0.139%.
`CC(=O)C[C@H](O)CC(=O)[C@H]1OC(=O)[C@H](C)CCCCc2ccccc21` was tested, and the activity change, negative = inhibition was inactive: 0.499%.
In the case of `O=C(NS(=O)(=O)c1ccc2c(c1)OCCO2)c1ccccc1`, the activity change, negative = inhibition is reported as inactive: 0.348%.
For `CCS(=O)(=O)N1CCN(c2ccc([N+](=O)[O-])c(N3CCOCC3)c2)CC1`, the activity change, negative = inhibition was inactive: -0.0167%.
For `O=C(CSc1nc2ccccc2c(=O)n1Cc1ccccc1)NCc1ccco1`, the activity change, negative = inhibition was inactive: 0.0439%.
`CCOc1cc(/C=N/NC(=O)C(=O)N/N=C/c2ccc(O)c(OCC)c2)ccc1O` was tested, and the activity change, negative = inhibition was inactive: -0.0888%.
For `CC(OC(=O)c1cccnc1SCc1cc(=O)n2ccccc2n1)c1ccccn1` (stereo not given), the activity change, negative = inhibition was inactive: -0.51%.
For `COC(=O)c1ccc(CSc2nc3sc(C(=O)O)c(C)c3c(=O)[nH]2)cc1`, the activity change, negative = inhibition was inactive: 0.622%.
`CC[C@]12c3[nH]c4ccccc4c3CCN1C(=O)C(CC(=O)NCCCOC)C[C@@H]2C(=O)N1CCN(C(=O)C2CC2)CC1` (stereo not given in full) was tested, and the activity change, negative = inhibition was inactive: 0.125%.
With `COc1ccc(NC(=O)CNC(=O)c2nn(-c3ccc(OC)c(Cl)c3)c(=O)c3ccccc23)c(OC)c1` the activity change, negative = inhibition was inactive: -0.0159%.
For `Cc1nc2nc(C)c(CCC(=O)NCc3ccc4c(c3)OCO4)c(C)n2n1`, the activity change, negative = inhibition was inactive: 0.43%.
In the case of `COC(=O)COc1ccc(Oc2cc(C)nc(SC)n2)nn1`, the activity change, negative = inhibition is reported as inactive: 1.16%.
For `CCn1c(SCC(=O)NCC(=O)Nc2ccc(F)cc2)nnc1-c1ccncc1`, the activity change, negative = inhibition was inactive: 0.118%.
For `C[C@H](CO)N1C[C@H](C)[C@@H](CN(C)C(=O)Nc2ccc(C(F)(F)F)cc2)Oc2c(cccc2N(C)C)C1=O`, the activity change, negative = inhibition was inactive: 0.162%.
In the case of `Cc1nnc(N=c2ssnc2Cl)o1`, the activity change, negative = inhibition is reported as inactive: -0.304%.
`Cc1onc(-c2c(F)cccc2Cl)c1C(=O)NC1CC1` was tested, and the activity change, negative = inhibition was inactive: -0.543%.
`Cc1csc(NC(=O)CSc2nnc(-c3ccncc3)n2C)n1` was tested, and the activity change, negative = inhibition was inactive: 0.441%.
In the case of `Cc1cc2oc(=O)cc(CSc3nnc(-c4cccs4)o3)c2cc1C(C)C`, the activity change, negative = inhibition is reported as inactive: 0.339%.
In the case of `CN1CCC[C@H]1CCNC(=O)c1c(-c2ccsc2)sc2ccccc12`, the activity change, negative = inhibition is reported as inactive: 0.161%.
For `COc1ccc(C(=O)N2CCCC(c3nc(-c4ccc(OC)c(OC)c4)no3)C2)c(OC)c1` (stereo not given), the activity change, negative = inhibition was inactive: 0.546%.
`Cc1ccc(S(=O)(=O)NC(=O)NCc2ccc(Cl)cc2)cc1` was tested, and the activity change, negative = inhibition was inactive: -0.66%.
In the case of `Cc1cccc(C2=N/C(=C\c3cccnc3)C(=O)O2)c1`, the activity change, negative = inhibition is reported as inactive: 0.15%.
In the case of `O=[N+]([O-])c1cc(-c2cnc3ccccc3n2)ccc1Oc1ccc(F)cc1`, the activity change, negative = inhibition is reported as inactive: 0.0434%.
`Cc1cccn2c(=O)c3cc(C(=O)NCCN4CCOCC4)c(=N)n(CCc4ccccc4)c3nc12` was tested, and the activity change, negative = inhibition was inactive: 0.696%.
In the case of `O=C(O)Cc1ccc2oc(-c3cccnc3)nc2c1`, the activity change, negative = inhibition is reported as inactive: -0.955%.
For `Cc1nc2cc(CO)ccc2n1C`, the activity change, negative = inhibition was inactive: -0.0334%.
In the case of `O=C1CCN(Cc2ccc(O)cc2)CCN1[C@H](CO)Cc1ccccc1`, the activity change, negative = inhibition is reported as inactive: 0.811%.
`CN(C)S(=O)(=O)c1cccc(NC(=S)NCc2ccc3c(c2)OCO3)c1` was tested, and the activity change, negative = inhibition was inactive: -0.283%.
For `COC(=O)c1cc(NC(=O)CSc2nncn2C)cc(C(=O)OC)c1`, the activity change, negative = inhibition was inactive: 0.228%.
In the case of `O=C(NCC1CCCO1)c1ccc2c(=O)n(Cc3cccc(Br)c3)c(=S)[nH]c2c1` (stereo not given), the activity change, negative = inhibition is reported as inactive: 0.246%.
With `O=C(Cn1cncn1)NCc1cc(F)ccc1F` the activity change, negative = inhibition was inactive: 0.155%.
`O=C(Nc1ccc(-c2nc3ncccc3o2)cc1)c1ccc(Br)o1` was tested, and the activity change, negative = inhibition was inactive: -0.298%.
`C[C@@H]1CN([C@H](C)CO)C(=O)c2cccc(NS(=O)(=O)c3ccccc3)c2O[C@H]1CN(C)C` was tested, and the activity change, negative = inhibition was inactive: -1.05%.
`O=C(COC(=O)c1ccc(O)cc1)Nc1ccc(Cl)cc1` was tested, and the activity change, negative = inhibition was inactive: 0.633%.
`CCCCNC(=O)CC1N=C2c3ccccc3N=C(SCC(=O)Nc3cccc(C)c3)N2C1=O` (stereo not given) was tested, and the activity change, negative = inhibition was inactive: -0.234%.
With `O=C(NCCCN1CCOCC1)c1cccc(S(=O)(=O)N2CCc3ccccc3C2)c1` the activity change, negative = inhibition was inactive: -0.539%.
In the case of `FC(F)(F)c1ccccc1NC(=S)NN=C1CCCCCC1`, the activity change, negative = inhibition is reported as inactive: -0.043%.
`CC(C)(C)OC(=O)N[C@@H](Cc1ccccc1)C(=O)N[C@@H](CO)[C@H](O)[C@@H]1C[C@@H]1C(=O)NC1CCCCC1` was tested, and the activity change, negative = inhibition was inactive: 0.712%.
For `COc1ccc(N2CCN(C(=O)Cn3nnc(-c4ccc(N(C)C)cc4)n3)CC2)cc1`, the activity change, negative = inhibition was inactive: 0.674%.
For `C[C@@H]1CN([C@H](C)CO)C(=O)c2cc(NC(=O)Nc3ccc(C(F)(F)F)cc3)ccc2O[C@H]1CN(C)S(=O)(=O)c1ccccc1`, the activity change, negative = inhibition was inactive: 0.477%.
In the case of `O=C(O)c1cc(O)c2c(c1)[C@@H]([C@H]1c3cc(C(=O)O)cc(O)c3C(=O)c3c(O[C@@H]4O[C@H](CO)[C@@H](O)[C@H](O)[C@H]4O)cccc31)c1cccc(O[C@@H]3O[C@H](CO)[C@@H](O)[C@H](O)[C@H]3O)c1C2=O`, the activity change, negative = inhibition is reported as inactive: 0.118%.
In the case of `CCCC(=O)Nc1nn(C)c2nc3c(C)cccc3cc12`, the activity change, negative = inhibition is reported as inactive: 0.372%.
In the case of `COc1ccccc1-n1cnnc1SCC(=O)Nc1ncc(Cl)cc1Cl`, the activity change, negative = inhibition is reported as inactive: 0.212%.
With `COC(=O)c1cc(S(=O)(=O)NCCCN2CCCC2=O)cn1C` the activity change, negative = inhibition was inactive: 0.57%.
In the case of `Cc1cc(-n2c(SCC(=O)NCc3cccs3)nc3n[nH]c(C)c3c2=N)ccc1Cl`, the activity change, negative = inhibition is reported as inactive: 0.308%.
In the case of `COc1ccc(S(=O)(=O)NCCCCC(=O)O)cc1C(=O)O`, the activity change, negative = inhibition is reported as inactive: 1.18%.
In the case of `COc1cc(C)c(/C=C(\C#N)C(=O)Nc2ccc(C)cc2)cc1C(C)C`, the activity change, negative = inhibition is reported as inactive: 0.657%.
In the case of `O=C(Cc1cccc2ccccc12)N1CCCc2ccccc21`, the activity change, negative = inhibition is reported as inactive: -0.303%.
For `CCOCCc1nnc(NC(=O)c2ccc(OC)c(OC)c2)s1`, the activity change, negative = inhibition was inactive: -1.23%.
For `CCCNC(=S)Nc1ccc(Nc2ccccc2)cc1`, the activity change, negative = inhibition was inactive: 0.178%.
For `CC(NC(=O)NNC(N)=S)(C(F)(F)F)C(F)(F)F`, the activity change, negative = inhibition was inactive: 0.344%.
With `C[C@H](CO)N1C[C@H](C)[C@@H](CN(C)Cc2ccc(Cl)c(Cl)c2)Oc2c(NS(=O)(=O)c3cccs3)cccc2C1=O` the activity change, negative = inhibition was inactive: 0.142%.
`COc1ccc(CCNC(=O)c2ccc(N3CCCCS3(=O)=O)cc2)cc1OC` was tested, and the activity change, negative = inhibition was inactive: 0.084%.
For `Cc1noc(C)c1NC(=O)N(C)C[C@H]1Oc2ccc(NC(=O)CCC(F)(F)F)cc2C(=O)N([C@H](C)CO)C[C@@H]1C`, the activity change, negative = inhibition was inactive: -0.0491%.
`Nc1nnc(SC2CC(=O)N(c3ccccc3)C2=O)s1` (stereo not given) was tested, and the activity change, negative = inhibition was inactive: 0.06%.
